Changes are numbered by the printed parent chain. Results are given in words; binding and its absence hold for the method and conditions named. Binding seen in cells or lysates may run through a third protein. Some results given as binding are weak or reduced against the parent protein; the word gives no strength. Where a sequence is shown, tags or fusion partners need not be part of it.
Experiments:
[1] = target: T1, FLAG-SEPT14 (wild type), expressed in HeLa cells (human) (UniProt Q6ZU15); test: co-IP; lysates of HeLa cells transfected with pFLAG-SEPT14 (WT or mutant), IP with FLAG antibody or control IgG, immunoblot with FLAG and ACTN4 antibodies
T1 sequence: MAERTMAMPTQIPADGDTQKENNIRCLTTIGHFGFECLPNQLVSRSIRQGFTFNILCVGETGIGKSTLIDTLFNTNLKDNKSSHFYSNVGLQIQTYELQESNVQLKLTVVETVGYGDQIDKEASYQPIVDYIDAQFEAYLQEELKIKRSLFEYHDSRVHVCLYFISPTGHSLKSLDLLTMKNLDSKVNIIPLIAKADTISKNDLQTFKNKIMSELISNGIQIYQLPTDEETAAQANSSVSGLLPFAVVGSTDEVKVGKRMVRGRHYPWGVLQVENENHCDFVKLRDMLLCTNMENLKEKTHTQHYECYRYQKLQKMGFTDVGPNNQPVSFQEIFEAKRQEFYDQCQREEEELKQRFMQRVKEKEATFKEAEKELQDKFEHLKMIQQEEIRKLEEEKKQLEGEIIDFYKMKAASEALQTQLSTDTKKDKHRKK

Amino acid sequences for entries named in this document (tags omitted).
UniProt O43707: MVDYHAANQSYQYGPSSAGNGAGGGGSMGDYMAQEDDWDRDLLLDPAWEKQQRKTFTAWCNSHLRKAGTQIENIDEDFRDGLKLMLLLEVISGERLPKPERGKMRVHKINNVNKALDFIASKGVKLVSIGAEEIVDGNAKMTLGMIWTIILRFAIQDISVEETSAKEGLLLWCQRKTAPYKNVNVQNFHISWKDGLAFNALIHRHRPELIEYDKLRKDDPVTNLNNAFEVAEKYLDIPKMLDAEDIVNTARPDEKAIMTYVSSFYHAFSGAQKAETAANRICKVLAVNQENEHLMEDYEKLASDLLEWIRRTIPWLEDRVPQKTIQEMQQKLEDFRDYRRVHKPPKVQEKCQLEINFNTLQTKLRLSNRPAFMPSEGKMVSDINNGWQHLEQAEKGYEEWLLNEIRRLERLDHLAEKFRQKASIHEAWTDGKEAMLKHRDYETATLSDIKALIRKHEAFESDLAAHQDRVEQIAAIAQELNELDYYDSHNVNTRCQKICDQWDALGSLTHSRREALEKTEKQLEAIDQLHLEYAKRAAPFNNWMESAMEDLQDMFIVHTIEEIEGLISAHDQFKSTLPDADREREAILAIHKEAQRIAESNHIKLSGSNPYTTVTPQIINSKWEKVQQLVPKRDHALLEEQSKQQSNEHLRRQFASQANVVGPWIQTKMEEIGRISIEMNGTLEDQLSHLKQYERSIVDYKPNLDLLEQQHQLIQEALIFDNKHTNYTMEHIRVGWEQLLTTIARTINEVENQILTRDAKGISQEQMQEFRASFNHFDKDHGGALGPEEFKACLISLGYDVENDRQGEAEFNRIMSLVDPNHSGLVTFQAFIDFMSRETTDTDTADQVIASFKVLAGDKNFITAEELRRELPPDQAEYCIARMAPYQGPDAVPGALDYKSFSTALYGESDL

[2] = target: T2, FLAG-SEPT14^A123T (p.Ala123Thr), expressed in HeLa cells (human) (UniProt Q6ZU15); test: as above
T2 sequence: T1 sequence with A123T

[3] = target: T3, FLAG-SEPT14^I333T (p.Ile333Thr), expressed in HeLa cells (human) (UniProt Q6ZU15); test: as above
T3 sequence: T1 sequence with I333T

[4] = target: T4, FLAG-SEPT14 (wild type), expressed in NT2D1 cells (human) (UniProt Q6ZU15); test: co-IP; lysate of NT2D1 cells transfected with pFLAG-SEPT14, IP with FLAG antibody or control IgG, immunoblot with ACTN4 and FLAG antibodies
T4 sequence: T1 sequence

binding [1]	binding [2]	binding [3]	binding [4]	Substance
binds	binds	binds		ACTN4 (actinin, alpha 4), endogenous in HeLa cells (from UniProt O43707 1-911)
			binds	ACTN4 (actinin, alpha 4), endogenous in NT2D1 cells (from UniProt O43707 1-911)

From article PMC7699536
